## Primary screen of a compound library

Sequences of proteins named here, by UniProt entry; tags and fusion partners are left off.
UniProt E9BF75, entry or part of it: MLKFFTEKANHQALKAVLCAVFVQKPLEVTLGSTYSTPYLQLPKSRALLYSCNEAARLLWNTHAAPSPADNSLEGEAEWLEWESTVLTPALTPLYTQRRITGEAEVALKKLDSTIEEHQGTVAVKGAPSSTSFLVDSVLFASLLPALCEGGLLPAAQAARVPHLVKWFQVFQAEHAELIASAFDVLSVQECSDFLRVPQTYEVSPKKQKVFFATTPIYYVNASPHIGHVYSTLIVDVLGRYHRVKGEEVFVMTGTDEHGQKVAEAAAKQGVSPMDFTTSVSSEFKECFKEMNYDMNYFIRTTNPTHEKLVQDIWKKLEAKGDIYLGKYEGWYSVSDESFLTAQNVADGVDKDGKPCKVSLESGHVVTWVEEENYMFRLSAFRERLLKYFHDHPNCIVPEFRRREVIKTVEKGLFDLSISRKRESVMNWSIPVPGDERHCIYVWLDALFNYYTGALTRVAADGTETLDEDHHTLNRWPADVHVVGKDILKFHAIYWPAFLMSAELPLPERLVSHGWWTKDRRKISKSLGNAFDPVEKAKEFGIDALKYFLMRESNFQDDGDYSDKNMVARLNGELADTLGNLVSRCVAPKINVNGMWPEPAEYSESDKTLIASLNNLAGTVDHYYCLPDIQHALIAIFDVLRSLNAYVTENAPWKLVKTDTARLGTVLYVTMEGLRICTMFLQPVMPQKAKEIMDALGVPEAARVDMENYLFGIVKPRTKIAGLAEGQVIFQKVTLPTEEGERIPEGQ

Source: ChEMBL document CHEMBL3988442, “University of Dundee, Small-Polar-MMV Screening Library” (2021).

A: 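Methionyl-tRNA synthetase (putative), Leishmania donovani (UniProt E9BF75). Primary screen of methionyl-tRNA synthetase; the read-out is not stated. The test concentration is not given. Values are per cent inhibition. Size under these conditions: about 68,000 compounds, about 24 of them at 50% or above in at least one test.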
B: 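Assay on Mycobacterium tuberculosis, filed only as a heat shock assay from Cornell; the read-out is not stated. The concentration is filed as 10 mM, unlikely as a test dose, so the dose is not known. The record gives no direction; compounds that gave an IC50 in retests scored well above the rest, so higher reads as stronger inhibition. About 69,000 compounds were tested under these conditions; 1.4% (about 930) showed 50% or more at least once.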

All values are in %.
The controls that fix the scale are not given in the record; negative values are as filed.
This is an unselected part of the compounds tested.
A dash means the value is not listed here; it may have been measured.

| structure | A | B |
|---|---|---|
| `Cc1cn[nH]c1C1COCCN1Cc1ccsc1` (stereo not given) | 11.05 | -7.414 |
| `Cc1noc2ncc(C(=O)NCC3CCS(=O)(=O)C3)cc12` (stereo not given) | 17.37 | -4.82 |
| `Cc1nnc(C(NS(=O)(=O)c2cc(C#N)ccc2C)C(C)C)[nH]1` (stereo not given) | 14.78 | -22.31 |
| `Cc1cnn(CCNCc2ccccc2C#N)c1` | 2.857 | 4.449 |
| `[H][C@@]12CC[C@@]([H])(C1)N(CCC(=O)N1CCN(c3cc(C)cc(C)c3)C(=O)C1)C2` | - | -4.633 |
| `Cc1cc(C(C)(O)CNC(=O)C2(C)CCCC2)c(C)o1` (stereo not given) | 16.67 | 15.05 |
| `CN(Cc1ccsc1)C(=O)Nc1ccc(S(C)(=O)=O)nc1` | 7.042 | 16.08 |
| `COc1ccccc1CC1CCCN(C(=O)c2nccnc2N)C1` (stereo not given) | 10.68 | -25.76 |
| `COc1nn(C)cc1C(=O)NCC1(O)CCOCC1` | 17.75 | -13.55 |
| `COCC(=O)NC(Cc1cc(N(C)C)nc(C2CC2)n1)c1ccccc1` (stereo not given) | 16.67 | -3.713 |
| `NC(=O)c1cc2c(nc1Oc1ccccc1CN1CCCCC1)CCC2` | 24.29 | -1.598 |
| `CC(C)c1cc(C(=O)NCC2CCCN(c3ncccn3)C2)n(C)n1` (stereo not given) | 15.87 | 15.38 |
| `Cc1ccc(CNCc2c(C)nn(C)c2N(C)C)cn1` | 5.694 | 5.933 |
| `COCCN1CCO[C@@H]2CN(C(=O)Cc3ccc(F)cc3)CC[C@@H]2C1` | 10.28 | - |
| `COCC1c2c(cnn2CC2CC2)CCN1Cc1cccs1` (stereo not given) | 14.64 | - |
| `O=c1[nH]c(COc2ccccc2Cl)nc2c1CCNC2` | 16.24 | -17.38 |
| `Clc1ccccc1-c1nnc(CSCCN2CCOCC2)o1` | 11.14 | 11.85 |
| `CCOc1ccc(NC2CCN(C(C)C)C2=O)cn1` (stereo not given) | 25.81 | 8.275 |
| `CS(=O)(=O)N1CC2(CCCN(CC3CC3)C2)Cc2ccccc21` (stereo not given) | 9.143 | -27.54 |
| `O=C(NCCCn1cccn1)c1nc2ccccc2[nH]1` | 19.09 | -19.53 |
| `O[C@@H]1C[C@@](CNCC2CCCC2)(COc2cccnc2)C[C@@H]1O` | 9.831 | - |
| `O=C(NCC(F)F)c1ccc(S(=O)(=O)NCCc2ccncc2)cc1` | 2.046 | 24.45 |
| `COCCc1noc(CN2CCCC2Cn2nc(C)cc2C)n1` (stereo not given) | 20.22 | -26.4 |
| `CN(C)C(=O)N1CCO[C@@H]2CC(COCc3cccnc3)C[C@H]21` (stereo not given in full) | 15.85 | - |
| `COc1cc(NC(=O)c2cc(C)sc2C)c(C(=O)N(C)C)cc1OC` | 8.661 | 7.461 |
| `COc1ccc(CCNC2CCCN(Cc3noc(C)n3)C2)cc1` (stereo not given) | 14.93 | -12.65 |
| `Cc1nccn1-c1ccc(N2CCC(NC(C)CC(C)C)CC2)cc1` (stereo not given) | 0 | -4.775 |
| `Cc1cc(CN2CCN(C(=O)NC(C)c3cccnc3)CC2)no1` (stereo not given) | 13.11 | -10.01 |
| `CN(Cc1ncc(C(C)(C)C)o1)CC1CCCN1c1cccnn1` (stereo not given) | 5.744 | 66 |
| `Cc1cc(C2CCCN2C(=O)Cn2c(C)cc(=O)c3ccccc32)on1` (stereo not given) | 13.4 | -18.54 |
| `Cc1noc2ncnc(NC(CC(C)(C)C)c3cccnc3)c12` (stereo not given) | 5.025 | 6.92 |
| `O=C(COc1cccc(F)c1)N1C[C@@H](O)[C@H](N2CCCC2)C1` | 8.562 | -14.9 |
| `Cc1nc(CN2CCCCC2CCc2ccc(O)cc2)no1` (stereo not given) | 11.88 | -12.19 |
| `[H][C@@]12C[C@H](C(=O)N(C)C)[C@@]([H])(CN(c3ncccn3)C1)O2` | - | -40.55 |
| `O=C(c1ccccc1F)N1CCC2(CC1)CC(Oc1ccccn1)CO2` (stereo not given) | 13.51 | - |
| `O=C(O)C(F)(F)F.[H][C@]12CCN(CC(C)C)CC[C@@]1([H])S(=O)(=O)CCN2C(=O)c1ccccc1` | - | -17.43 |
| `CNC(=O)[C@H]1C[C@@H]2CN(C(=O)NCCc3ccccc3)C[C@H]1O2` | 9.15 | - |
| `CC(=O)N1CCO[C@H]2[C@H](OCCCn3cccn3)CC[C@@H]21` | 9.041 | - |
| `Cc1cccn2cc(CN3CCCC(O)C3)nc12` (stereo not given) | 15.96 | -6.265 |
| `O=C(CSc1nncs1)N1CCN(Cc2ccc(Cl)cc2)CC1` | 1.63 | -0.8881 |
| `CCN1CCCC1CNCc1cc2cc3c(cc2[nH]c1=O)OCCO3` (stereo not given) | 15.22 | 25.3 |
| `Cc1cc(CNC2CCc3nc(C(C)C)nn3C2)on1` (stereo not given) | 12.96 | 7.351 |
| `COc1ccc(CN(C)C(=O)CCc2c(C)nc(C)[nH]c2=O)cc1OC` | 11.5 | -1.68 |
| `CC(Cc1ccc2c(c1)OCO2)c1cn(CCN2CCCC2)nn1` (stereo not given) | 21.48 | 15 |
| `CC(=O)NCCn1ccnc1-c1cccc(C(C)N(C)C)c1` (stereo not given) | -0.7634 | -13.97 |
| `c1cncc(-c2noc(CN3CCCC3Cn3cccn3)n2)c1` (stereo not given) | 33.82 | -12.45 |
| `CC(=O)N1CCOC[C@H](OCC(=O)N(C)C)C1` | 8.271 | 1.582 |
| `O=C(O)C(F)(F)F.[H][C@@]12CN(c3nnc(C)s3)C[C@@H](C(=O)NCC3CC3)[C@]1([H])CCO2` | - | -11.17 |
| `CC(NC(=O)c1ccc2c(c1)OCC(=O)N2)c1ccccc1F` (stereo not given) | 14.96 | -22.99 |
| `Cc1ncccc1CNc1ccc(OCCO)nc1` | 9.756 | 10.28 |
| `COCCN1C(=O)CC[C@@H]2[C@H]1CCN2C(=O)N(C)C` | 11.28 | - |
| `CCOc1ccc(C#N)cc1NCC(=O)NC(=O)NC` | 21.11 | -7.923 |
| `Cc1ccc(OCC(=O)N2C[C@@H]3CN(C)CCO[C@@H]3C2)cc1` | 7.609 | - |
| `O=C(N1CCC(Nc2cccnn2)CC1)C1(c2ccc(F)cc2)CC1` | 9.408 | 4.975 |
| `COCCNC(=O)NCc1cc(-c2ccncc2)n(C2CCCC2)n1` | 18.16 | -13.62 |
| `Cn1nnc2c1C(COCc1cccnc1)CN(Cc1ccoc1)C2` (stereo not given) | 6.536 | - |
| `O=C(c1ccc[nH]1)N1CCn2cc(Cn3cncn3)nc2C1` | 10.1 | 1.928 |
| `O=C(NCc1cccc(N2CC=CC2)c1)NC1CC1` | 0 | 11.02 |
| `O=C(N[C@@H]1CN(c2ncccn2)[C@@H]2CCCO[C@@H]21)c1cnccn1` | 15.48 | - |
| `O=C(O)c1ccccc1-c1ccc(CN2CC(O)C2)cc1` | 11.41 | -3.155 |
| `CC(C)CC(=O)Nc1cccc(CNCc2cccs2)c1` | 11.75 | 10.58 |
| `COCCN1CCC2(CC1)CN(C(C)=O)c1ccc(C)cc12.O=C(O)C(F)(F)F` | - | 0.7539 |
| `CC(NCc1ccncc1)c1cc(F)ccc1N1CCN(C)CC1` (stereo not given) | 10.04 | -24.07 |
| `Cc1nnn2c1COCC(CNC(=O)c1cnoc1C)C2` (stereo not given) | -16.67 | -19.08 |
| `OCCN1CCC(CNCc2ccc(Br)cc2)CC1` | 15.72 | -11.77 |
| `Cc1ncc(-c2ccnc(NC3CC3)n2)c(-c2cccnc2)n1` | 6.068 | -27.3 |
| `COc1ccc(-c2n[nH]cc2CN(C)CCCN2CCOCC2)c(F)c1` | 10.05 | -18.79 |
| `CC(C)CN(CC(C)C)Cn1ncc2cn(-c3ccccc3)nc2c1=O` | 14.52 | -12.13 |

The last 8 entries again:

structure	A	B
CC(C)CC(=O)Nc1cccc(CNCc2cccs2)c1	11.75	10.58
COCCN1CCC2(CC1)CN(C(C)=O)c1ccc(C)cc12.O=C(O)C(F)(F)F	-	0.7539
CC(NCc1ccncc1)c1cc(F)ccc1N1CCN(C)CC1 (stereo not given)	10.04	-24.07
Cc1nnn2c1COCC(CNC(=O)c1cnoc1C)C2 (stereo not given)	-16.67	-19.08
OCCN1CCC(CNCc2ccc(Br)cc2)CC1	15.72	-11.77
Cc1ncc(-c2ccnc(NC3CC3)n2)c(-c2cccnc2)n1	6.068	-27.3
COc1ccc(-c2n[nH]cc2CN(C)CCCN2CCOCC2)c(F)c1	10.05	-18.79
CC(C)CN(CC(C)C)Cn1ncc2cn(-c3ccccc3)nc2c1=O	14.52	-12.13